Results from paper PMC8632689.
No constants are given. Whether binding was seen depends on the method and setting. In cells and extracts the contact can be indirect. Some binding calls cover weakened binding; strength is not graded here.

The chains behind the UniProt entries cited, without tags or fusion partners.
UniProt Q15910: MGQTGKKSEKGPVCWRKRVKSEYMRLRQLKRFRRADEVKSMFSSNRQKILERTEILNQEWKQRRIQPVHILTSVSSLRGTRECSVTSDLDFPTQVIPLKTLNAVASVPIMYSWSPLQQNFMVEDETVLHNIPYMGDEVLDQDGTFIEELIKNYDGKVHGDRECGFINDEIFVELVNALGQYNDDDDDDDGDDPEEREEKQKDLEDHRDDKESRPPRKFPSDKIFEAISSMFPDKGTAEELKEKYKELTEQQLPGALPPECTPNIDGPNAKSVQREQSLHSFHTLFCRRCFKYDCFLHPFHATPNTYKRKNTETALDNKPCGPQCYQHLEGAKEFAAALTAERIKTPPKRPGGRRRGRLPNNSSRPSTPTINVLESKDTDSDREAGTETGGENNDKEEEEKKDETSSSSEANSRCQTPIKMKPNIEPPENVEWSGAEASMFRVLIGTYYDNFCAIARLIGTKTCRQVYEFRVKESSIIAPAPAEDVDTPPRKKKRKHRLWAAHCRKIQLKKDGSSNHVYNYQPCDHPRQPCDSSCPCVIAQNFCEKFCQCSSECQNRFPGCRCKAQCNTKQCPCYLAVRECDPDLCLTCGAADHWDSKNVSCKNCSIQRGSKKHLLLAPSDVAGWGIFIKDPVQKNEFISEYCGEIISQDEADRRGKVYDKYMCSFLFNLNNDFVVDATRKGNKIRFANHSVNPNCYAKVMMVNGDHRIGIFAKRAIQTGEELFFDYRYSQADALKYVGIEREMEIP
UniProt P40763: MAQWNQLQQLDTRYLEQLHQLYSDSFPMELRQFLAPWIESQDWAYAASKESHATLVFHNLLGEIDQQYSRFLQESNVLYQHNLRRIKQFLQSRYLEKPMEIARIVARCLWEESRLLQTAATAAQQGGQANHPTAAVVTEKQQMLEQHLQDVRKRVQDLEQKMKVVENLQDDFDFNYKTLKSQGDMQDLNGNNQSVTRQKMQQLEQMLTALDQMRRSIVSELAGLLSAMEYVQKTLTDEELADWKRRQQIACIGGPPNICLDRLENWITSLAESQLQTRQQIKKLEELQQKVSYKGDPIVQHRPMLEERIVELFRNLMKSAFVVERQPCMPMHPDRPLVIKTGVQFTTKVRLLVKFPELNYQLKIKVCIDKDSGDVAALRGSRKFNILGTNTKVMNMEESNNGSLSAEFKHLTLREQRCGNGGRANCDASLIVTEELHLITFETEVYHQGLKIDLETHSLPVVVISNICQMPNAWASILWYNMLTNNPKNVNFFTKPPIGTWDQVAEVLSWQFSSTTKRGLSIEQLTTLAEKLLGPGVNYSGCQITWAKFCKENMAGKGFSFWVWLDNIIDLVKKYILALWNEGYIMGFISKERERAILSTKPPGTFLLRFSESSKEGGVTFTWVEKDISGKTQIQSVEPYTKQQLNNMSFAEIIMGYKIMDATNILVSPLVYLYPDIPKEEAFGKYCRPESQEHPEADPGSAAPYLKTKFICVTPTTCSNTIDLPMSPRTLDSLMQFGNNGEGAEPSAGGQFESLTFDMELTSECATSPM

Target: EZH2 (human (endogenous in primary CD8+ T cells)) (UniProt Q15910)
Assay: co-IP; nuclear protein lysates of CD8+ T cells of healthy controls cultured with IL-6, IL-15, MCP-1 or IL-15 plus MCP-1 in RPMI1640 for 12 h; Co-IP with antibody against STAT3, DNMT1, HDAC1 or EZH2; rabbit IgG isotype control as negative control; blots with the indicated antibodies

binding: binds
Substance: STAT3 (from UniProt P40763 1-770)
